This is an account of results in article PMC9456287.

Chains of the proteins cited; added tags and fusions are not shown. Lines headed by an entry give the natural chain unless they say otherwise; changes in a name come on top. Residues count along the entry.
UniProt Q8NFJ6: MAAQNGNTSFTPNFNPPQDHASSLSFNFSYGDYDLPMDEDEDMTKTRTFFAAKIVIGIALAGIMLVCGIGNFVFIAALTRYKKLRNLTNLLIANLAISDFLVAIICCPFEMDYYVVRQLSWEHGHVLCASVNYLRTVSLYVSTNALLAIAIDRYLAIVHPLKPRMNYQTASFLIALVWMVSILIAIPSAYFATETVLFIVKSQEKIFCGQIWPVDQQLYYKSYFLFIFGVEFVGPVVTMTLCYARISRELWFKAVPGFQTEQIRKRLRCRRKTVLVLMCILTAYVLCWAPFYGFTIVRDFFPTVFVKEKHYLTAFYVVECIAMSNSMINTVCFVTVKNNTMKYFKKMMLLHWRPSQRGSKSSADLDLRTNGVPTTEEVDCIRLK
GST fusion of the N-terminal region of PKR2: residues 1-69 of Q8NFJ6

Assay [1] concerns the target PKR2 terminal tagged His (prokineticin receptor 2) (human) (UniProt Q8NFJ6). The assay is described as follows: pull-down; Ni-NTA His-bind resin co-precipitation (batch, native conditions) of solubilized yeast membrane fractions co-expressing PKR2-His and MRAP2 isoforms; blots with anti-His and anti-MRAP2.
Assay [2] deals with GST fusion of the N-terminal region of PKR2 (human) (UniProt Q8NFJ6). The assay is described as follows: pull-down; R2-GST from E. coli lysate bound to glutathione-Sepharose and washed (buffer A: PBS, 1% Nonidet P 40, 1 mM EDTA), incubated overnight at 4 °C with total membrane extract of yeast expressing MRAP2 isoforms; eluted with GSH; blots with anti-GST and anti-MRAP2; only the target purified.

These are yes or no findings as the source states them, for the method shown. In cells and extracts the contact can be indirect. Some entries that bind do so weakly or less than the wild type.

B1: mouse MRAP2 (melanocortin receptor accessory protein 2) (protein, UniProt D3Z1Q2 1-207)
chain: MEMSAQRLASNRTSPQSPSNSDYTWEYEYYEIGPVSFEGLKAHKYSIVIGFWVGLAVFVIFMFFVLTLLTKTGAPHQDNAESSERRFRMNSFVSDFGKPLESDKVFSRQGNEESRSLFHCYINEVEHLDRVKVCHQTTAIDSDVHLQEASRSSGRPEEELARFMKFDIPNFVNTEQSSFGEDDLLISEAPVLLENKPVSQTSRIDLD
Turning to B1, the binding entry in assay [1] and in assay [2] was “binds” throughout.

B2: human MRAP2 R125H mutant (protein, UniProt Q96G30 1-205)
chain: MSAQRLISNRTSQQSASNSDYTWEYEYYEIGPVSFEGLKAHKYSIVIGFWVGLAVFVIFMFFVLTLLTKTGAPHQDNAESSEKRFRMNSFVSDFGRPLEPDKVFSRQGNEESRSLFHCYINEVEHLDRAKACHQTTALDSDVQLQEAIRSSGQPEEELNRLMKFDIPNFVNTDQNYFGEDDLLISEPPIVLETKPLSQTSHKDLD
B2: the binding result in assay [1] and in assay [2] was “binds” throughout.

B3: human MRAP2 R125C mutant (protein, UniProt Q96G30 1-205)
chain: MSAQRLISNRTSQQSASNSDYTWEYEYYEIGPVSFEGLKAHKYSIVIGFWVGLAVFVIFMFFVLTLLTKTGAPHQDNAESSEKRFRMNSFVSDFGRPLEPDKVFSRQGNEESRSLFHCYINEVECLDRAKACHQTTALDSDVQLQEAIRSSGQPEEELNRLMKFDIPNFVNTDQNYFGEDDLLISEPPIVLETKPLSQTSHKDLD
For the molecule B3, the binding result in assay [1] and in assay [2] was “binds” throughout.

B4: human MRAP2 (protein, UniProt Q96G30 1-205)
chain: MSAQRLISNRTSQQSASNSDYTWEYEYYEIGPVSFEGLKAHKYSIVIGFWVGLAVFVIFMFFVLTLLTKTGAPHQDNAESSEKRFRMNSFVSDFGRPLEPDKVFSRQGNEESRSLFHCYINEVERLDRAKACHQTTALDSDVQLQEAIRSSGQPEEELNRLMKFDIPNFVNTDQNYFGEDDLLISEPPIVLETKPLSQTSHKDLD
B4: in assay [1], the binding result is given as “binds”.
